Results: PubChem BioAssay AID1671190 (National Center for Advancing Translational Sciences (NCATS), 2021)
Out of some 580,000 compounds screened, about 6,100 (1.1%) were called active. Inconclusive results, whose numbers are uncertain, are shown with a selection of clear calls. The call rests on the fitted dose curve; in most records, active means well fitted inhibition curve with a large enough effect; inconclusive means small, poorly fitted or top-dose-only effect, or another doubt; inactive means no such curve, though single readings can be large or run the other way. A potency beside an inconclusive call is a rough fit, not a confirmed value.

By UniProt entry, the sequences of proteins in these tests, tags left out. Where a name states a change or a piece, a line headed by the entry shows the natural chain unless it says otherwise.
UniProt P18054: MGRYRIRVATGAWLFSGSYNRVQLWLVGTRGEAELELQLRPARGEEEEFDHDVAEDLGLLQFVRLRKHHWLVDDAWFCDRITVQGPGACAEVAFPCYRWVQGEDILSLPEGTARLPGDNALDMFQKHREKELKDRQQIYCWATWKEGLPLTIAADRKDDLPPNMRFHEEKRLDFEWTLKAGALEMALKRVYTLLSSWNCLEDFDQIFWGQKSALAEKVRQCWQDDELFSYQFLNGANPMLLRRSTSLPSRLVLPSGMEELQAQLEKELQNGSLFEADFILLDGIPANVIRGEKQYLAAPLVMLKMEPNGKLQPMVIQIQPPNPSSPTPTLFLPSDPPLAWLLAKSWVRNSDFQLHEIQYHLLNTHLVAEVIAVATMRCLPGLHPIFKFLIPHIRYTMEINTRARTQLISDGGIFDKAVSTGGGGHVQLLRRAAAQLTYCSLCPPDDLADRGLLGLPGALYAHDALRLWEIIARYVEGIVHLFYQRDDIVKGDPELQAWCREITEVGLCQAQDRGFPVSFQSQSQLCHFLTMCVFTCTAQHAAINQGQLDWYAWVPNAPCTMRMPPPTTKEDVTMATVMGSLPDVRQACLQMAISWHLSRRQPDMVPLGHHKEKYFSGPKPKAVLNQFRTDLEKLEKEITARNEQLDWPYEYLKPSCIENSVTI

The molecules below were run against Polyunsaturated fatty acid lipoxygenase ALOX12 (Homo sapiens) (UniProt P18054) (assay: Primary qHTS assay for inhibitors of human arachidonate 12S-lipoxygenase (ALOX12): Round 2). Conditions: purified 12hLO, xylenol orange hydroperoxide absorbance; activity change, negative = inhibition: at 108 µM (top of the series) unless noted.
Summary of the method: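 Purified human 12hLO (150 nM final) in 25 mM Hepes, 0.01% Triton X-100, pH 7.0 was preincubated 15 min at room temperature with compound. Then 40 uM arachidonic acid was added, 30 min. Hydroperoxide was read by Fe-XO absorbance ratio 573/405 nm.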
On the % scale 0 is the no-effect control and ±100 the full control effect; potency means the concentration at half of the fitted maximal effect.

Structure (SMILES) | Potency | activity change, negative = inhibition
O=C1CC(NNc2ccccc2)C(=O)N1c1ccccc1 (stereo not drawn) | active: 44.7 µM | 
Cc1cc(Br)ccc1Nc1nc(N)nc(N)c1N=O | inconclusive: 89.1 µM [inhibitor, partial curve, poor fit] | 
CCc1ccccc1Nc1nc(-c2c(C)nc3sccn23)cs1 | inconclusive: 22.4 µM [inhibitor, partial curve, poor fit] | 
CCc1cc(=O)[nH]c(-n2nc(C)cc2NC(=O)c2cccc3ccccc23)n1 | inconclusive: 12.6 µM [inhibitor, full curve, poor fit] | 
O=C(CCl)NC(NC(=O)CCl)c1ccccc1F | inconclusive: 56.2 µM [inhibitor, partial curve, poor fit] | 
O=C(Cn1cncn1)NCc1ccc(Cl)cc1 | inactive | 
CC(=O)N1CCN(c2nc3c(s2)CC(C(=O)NCc2cccc(Cl)c2)CC3)CC1 (stereo not drawn) | inconclusive: 10 µM [inhibitor, full curve, poor fit] | 
CN(CCC#N)c1ccc(/C=N/NC(N)=S)cc1 | active: 17.8 µM | 
CCc1c(-c2ccccc2F)ncn1Cc1cccc(-c2ccccc2)c1 | inconclusive: 50.1 µM [inhibitor, partial curve, poor fit] | 
N#CC1(Br)C(=N)c2ccccc2CC12CCCCC2 (stereo not drawn) | active: 0.562 µM | 
Cc1nc(SCC(=O)c2cc3ccccc3oc2=O)c(C#N)c(C)c1C(=O)Nc1ccccc1 | inconclusive: 50.1 µM [inhibitor, partial curve, poor fit] | 
O=C(Cn1cnc2ccccc2c1=O)c1ccc2ccccc2c1 | inactive | 
N#CCc1c(C#N)c(N)nc(NCc2ccccc2)c1C#N | inactive | 
NS(=O)(=O)c1cccc(NC(=O)c2cccc(Oc3ccccc3)c2)c1 | inconclusive: 50.1 µM [inhibitor, partial curve, poor fit] | 
CN(CC(=O)Nc1cccc(F)c1)C(=O)c1sccc1-c1ccccc1 | inactive | 
CSc1ccccc1NC(=O)CN(C)C(=O)c1cc(S(=O)(=O)N2CCOCC2)ccc1Cl | inconclusive: 100 µM [inhibitor, partial curve, poor fit] | 
COc1ccc(-n2nc(C)c([C@H]3C=C[C@@H](OC(=O)N[C@H](C)c4ccccc4)C3)c2C)cc1 | inactive | 
CN(C)S(=O)(=O)c1cccc(-c2nn(-c3ccccc3)cc2/C=C2\SC(=S)NC2=O)c1 | inconclusive: 17.8 µM [inhibitor, full curve] | 
CC(NC(=O)c1cccc(CS(C)(=O)=O)c1)c1ccccc1 (stereo not drawn) | inactive | 
Cc1ccc(NC(=O)N2CCc3[nH]c4ccc(F)cc4c3C2)cc1C | inconclusive: 50.1 µM [inhibitor, partial curve] | 
COc1ccc(C(=O)N[C@@H]2C=C[C@@H](c3c(C)nn(-c4ccc(C)c(Cl)c4)c3C)C2)cc1 | inactive | 
COc1ccc(-c2nn(-c3ccccc3)cc2CN2C[C@@H](C)O[C@@H](C)C2)c(F)c1 | inactive | 
Cc1nc2sc3c(c2c2nc(C(=O)NCc4ccccc4)nn12)CC(C)(C)OC3 | inactive | 

Structure (SMILES) | Potency | activity change, negative = inhibition
N#C/C(=C\c1cccc([N+](=O)[O-])c1)C(=O)NCc1cccnc1 | inconclusive: 31.6 µM [inhibitor, partial curve] | 
C=CCN=C1NC(c2ccccc2)C(C(=O)OC)=C(C)N1Cc1cccc(C(F)(F)F)c1 (stereo not drawn) | inconclusive: 50.1 µM [inhibitor, partial curve, poor fit] | 
Cn1c(CN2CCOC[C@H]2c2ncc(-c3ccc(Cl)cc3)[nH]2)nc2ccccc21 | active: 35.5 µM | 
CC(C)CCNc1nc(-c2ccco2)c2c(c1C#N)CCCC2 | inconclusive: 3.16 µM [inhibitor, full curve, poor fit] | 
COCCCn1c(=O)/c(=C\c2ccccc2OC(F)F)s/c1=C(/C#N)C(=O)NC(C)C | inconclusive: 89.1 µM [inhibitor, partial curve, poor fit] | 
C/C(=N\N(Cc1ccccc1)c1ccccc1)c1ccncc1 | inconclusive: 12.6 µM [inhibitor, partial curve, poor fit] | 
Cc1cc(C)n2nc(C(=O)NCc3ccccc3)cc2n1 | inconclusive: 7.94 µM [inhibitor, full curve, poor fit] | 
COc1ccc(OC)c(NC(=O)CSc2nc3ccccc3c(=O)n2CC2CCCO2)c1 (stereo not drawn) | inactive | 
O=C1c2ccccc2[C@@H]2C[C@@H](O)[C@H](Nc3ccccc3)CCN12 | inactive | 
CCOc1ccc(CNC(=O)C2Cc3cc(S(=O)(=O)N4CCCCCC4)ccc3N2C(C)=O)cc1 (stereo not drawn) | inconclusive: 126 µM [inhibitor, partial curve, poor fit] | 
COc1cc(/C=C2/C(=O)c3cccc([N+](=O)[O-])c3C2=O)c(Br)cc1O | active: 17.8 µM | 
Cn1c(CSCCOc2ccccc2)n[nH]c1=S | inconclusive: 35.5 µM [inhibitor, partial curve, poor fit] | 
Clc1ccc(CN2CCC(c3nc4ccc(Cl)cc4[nH]3)CC2)cc1 | inconclusive: 11.2 µM [inhibitor, full curve] | 
COc1ccc(-c2cc(C3CCNCC3)[nH]n2)cc1 | inconclusive: 44.7 µM [inhibitor, partial curve, poor fit] | 
COc1ccc(CN2CCC(N3CC(C)OC(C)C3)CC2)c(OC)c1 (stereo not drawn) | inconclusive: 89.1 µM [inhibitor, single point] | 
CC1CCCC(NC(=S)Nc2ccc(SC(F)F)cc2)C1C (stereo not drawn) | inconclusive: 31.6 µM [inhibitor, single point] | 
C/C(=N/NC(=S)NC1CCCCC1)c1ccc(C(C)(C)C)cc1 | inconclusive: 56.2 µM [inhibitor, partial curve, poor fit] | 
CCCNS(=O)(=O)c1ccc(CCC(=O)NCCc2ccc(OC)c(OC)c2)cc1 | inconclusive: 5.01 µM [inhibitor, partial curve, poor fit] | 
N#C/C(=C/c1ccc(Sc2nc3ccccc3[nH]2)o1)c1cccc(F)c1 | inconclusive: 17.8 µM [inhibitor, full curve] | 
CCOC(=O)c1c(C)c(C(=O)NCc2ccc3c(c2)OCO3)c(C)n1C | inconclusive: 0.282 µM [inhibitor, full curve, poor fit] | 
Brc1cccc(OCCCCn2cncn2)c1 | inconclusive: 2.82 µM [inhibitor, full curve, poor fit] | 
Cc1ccc(OCc2nc(C3CCN(C(=O)Cn4nc(C)cc4C)CC3)no2)cc1 | inactive | 
Cc1cc(C)c(NC(=O)COc2ccccc2C(=O)Nc2ccc3c(c2)oc2ccccc23)c(C)c1 | inactive | 

Gathered by group: the compounds so far containing a nitro group on carbon
Structure (SMILES) | Potency | activity change, negative = inhibition
N#C/C(=C\c1cccc([N+](=O)[O-])c1)C(=O)NCc1cccnc1 | inconclusive: 31.6 µM [inhibitor, partial curve] | 
COc1cc(/C=C2/C(=O)c3cccc([N+](=O)[O-])c3C2=O)c(Br)cc1O | active: 17.8 µM | 

Further records

Structure (SMILES) | Potency | activity change, negative = inhibition
COc1ccc(S(=O)(=O)NCCc2c[nH]c3ccc(Cl)cc23)cc1 | inconclusive: 44.7 µM [inhibitor, partial curve, poor fit] | 
O=C(c1ccc(F)cc1)C1CCN(CCn2c(=S)[nH]c3ccccc3c2=O)CC1 | inactive | 
COc1cc(Cl)cc2cc(C(=O)N3CCOCC3)c(=O)oc12 | inactive | 
COc1ccc(C(=S)N2CCOCC2)cc1OC(=O)c1cccc([N+](=O)[O-])c1 | inactive | 
COc1ccc(C2CC(c3cccs3)=NN2c2ccccc2)cc1 (stereo not drawn) | inconclusive: 50.1 µM [inhibitor, partial curve, poor fit] | 
CCCCCc1c(C)nc(Nc2nc(C)c3cc(OCC)ccc3n2)[nH]c1=O | inactive | 
NCCCC[C@H]1CNC(=S)N1CCCCC1CCCCC1 | inconclusive: 44.7 µM [inhibitor, partial curve, poor fit] | 
Cc1ccc(S(=O)(=O)NC[C@H]2O[C@@H](CO)[C@@H](O)[C@H]2N2CCN(c3ccccn3)CC2)cc1 | inconclusive: 31.6 µM [inhibitor, full curve, poor fit] | 
COc1ccc(NC(=O)Cc2csc(COc3cccc(C)c3)n2)c(OC)c1 | inconclusive: 10 µM [inhibitor, full curve, poor fit] | 
COc1cc(C#N)cc(Cl)c1OC(C)=O | inconclusive: 28.2 µM [inhibitor, single point] | 
O=C(N/N=C/c1cc2c(cc1Cl)OCO2)c1ccncc1 | inconclusive: 2.51 µM [inhibitor, full curve, poor fit] | 
FC(F)(F)c1ccc(Cl)c(N/N=C/c2ccccc2)c1 | inconclusive: 39.8 µM [inhibitor, partial curve, poor fit] | 
COc1ccc(Nc2nc(N)nc(CSc3nc4cc(OC)ccc4s3)n2)cc1 |  | inconclusive: -30.2% [inhibitor]
Cc1nn(C)c(C)c1CN1C[C@@H](COCC2CC2)[C@H](c2ccccn2)C1 | inactive | 
CN1CCN(CCCCOc2ccc(Br)cc2)CC1 | inconclusive: 4.47 µM [inhibitor, full curve, poor fit] | 
C(=N/n1c2ccccc2c2ccccc21)/c1ccco1 | inconclusive: 6.31 µM [inhibitor, partial curve, poor fit] | 
COc1cc(C(C)=O)ccc1OCC(=O)OCc1ccc2c(c1)OCO2 | inactive | 
CC[C@@]1(C(=O)O)C[C@H](C(=O)NCc2ccncc2)[C@H](c2ccc(OC)cc2)N1C | inactive | 
O=C(C1CCN(c2cnn(Cc3ccccc3)c(=O)c2)C1)N1CCCC1 (stereo not drawn) | inactive | 
CCCNC(=O)C12CC3CC(C1)CC(c1ccccc1)(C3)C2 | inconclusive: 112 µM [inhibitor, single point] | 
COc1cc(NS(=O)(=O)c2ccc(NC(=O)COc3cccc(C)c3)cc2)nc(OC)n1 | inconclusive: 70.8 µM [inhibitor, partial curve, poor fit] | 
CC(=O)c1ccc(SCC(=O)Nc2ccc(N3CCCC3=O)c(C)c2)c(F)c1 | inconclusive: 35.5 µM [inhibitor, partial curve, poor fit] | 
